Reference: paper PMC12514821
Results are given in words; binding and its absence hold for the method and conditions named. In cells and extracts the contact can be indirect. Binding can be weak; no strength is given.

target: HSP70-HA; assay: co-IP; MKN45 cells with exogenous SFB-PDLIM4 and HSP70; same procedure as in HEK-293T cells

binding | Binder
binds | SFB-PDLIM4 (330AA) (protein, UniProt P50479 1-330) MPHSVTLRGPSPWGFRLVGGRDFSAPLTISRVHAGSKAALAALCPGDLIQAINGESTELMTHLEAQNRIKGCHDHLTLSVSRPEGRSWPSAPDDSKAQAHRIHIDPEIQDGSPTTSRRPSGTGTGPEDGRPSLGSPYGQPPRFPVPHNGSSEATLPAQMSTLHVSPPPSADPARGLPRSRDCRVDLGSEVYRMLREPAEPVAAEPKQSGSFRYLQGMLEAGEGGDWPGPGGPRNLKPTASKLGAPLSGLQGLPECTRCGHGIVGTIVKARDKLYHPECFMCSDCGLNLKQRGYFFLDERLYCESHAKARVKPPEGYDVVAVYPNAKVELV

target: HSP70-HA; assay: co-IP; HEK-293T cells transfected with SFB-PDLIM4 constructs and HSP70-HA; lysates incubated overnight at 4 °C with antibody and S-Protein Agarose or Protein A/G resin, washed with TBS, western blotting

binding | Binder
binds | SFB-PDLIM4 (80-330AA) (domain or fragment, UniProt P50479 80-330) VSRPEGRSWPSAPDDSKAQAHRIHIDPEIQDGSPTTSRRPSGTGTGPEDGRPSLGSPYGQPPRFPVPHNGSSEATLPAQMSTLHVSPPPSADPARGLPRSRDCRVDLGSEVYRMLREPAEPVAAEPKQSGSFRYLQGMLEAGEGGDWPGPGGPRNLKPTASKLGAPLSGLQGLPECTRCGHGIVGTIVKARDKLYHPECFMCSDCGLNLKQRGYFFLDERLYCESHAKARVKPPEGYDVVAVYPNAKVELV
binds | SFB-PDLIM4 (330AA) (protein, UniProt P50479 1-330) MPHSVTLRGPSPWGFRLVGGRDFSAPLTISRVHAGSKAALAALCPGDLIQAINGESTELMTHLEAQNRIKGCHDHLTLSVSRPEGRSWPSAPDDSKAQAHRIHIDPEIQDGSPTTSRRPSGTGTGPEDGRPSLGSPYGQPPRFPVPHNGSSEATLPAQMSTLHVSPPPSADPARGLPRSRDCRVDLGSEVYRMLREPAEPVAAEPKQSGSFRYLQGMLEAGEGGDWPGPGGPRNLKPTASKLGAPLSGLQGLPECTRCGHGIVGTIVKARDKLYHPECFMCSDCGLNLKQRGYFFLDERLYCESHAKARVKPPEGYDVVAVYPNAKVELV
binds | SFB-PDLIM4 (1-260AA) (domain or fragment, UniProt P50479 1-260) MPHSVTLRGPSPWGFRLVGGRDFSAPLTISRVHAGSKAALAALCPGDLIQAINGESTELMTHLEAQNRIKGCHDHLTLSVSRPEGRSWPSAPDDSKAQAHRIHIDPEIQDGSPTTSRRPSGTGTGPEDGRPSLGSPYGQPPRFPVPHNGSSEATLPAQMSTLHVSPPPSADPARGLPRSRDCRVDLGSEVYRMLREPAEPVAAEPKQSGSFRYLQGMLEAGEGGDWPGPGGPRNLKPTASKLGAPLSGLQGLPECTRCGH
binds | SFB-PDLIM4 (250-330AA) (domain or fragment, UniProt P50479 250-330) QGLPECTRCGHGIVGTIVKARDKLYHPECFMCSDCGLNLKQRGYFFLDERLYCESHAKARVKPPEGYDVVAVYPNAKVELV
no binding | SFB-PDLIM4 (1-88AA) (domain or fragment, UniProt P50479 1-88) MPHSVTLRGPSPWGFRLVGGRDFSAPLTISRVHAGSKAALAALCPGDLIQAINGESTELMTHLEAQNRIKGCHDHLTLSVSRPEGRSW
binds | SFB-PDLIM4 (80-260AA) (domain or fragment, UniProt P50479 80-260) VSRPEGRSWPSAPDDSKAQAHRIHIDPEIQDGSPTTSRRPSGTGTGPEDGRPSLGSPYGQPPRFPVPHNGSSEATLPAQMSTLHVSPPPSADPARGLPRSRDCRVDLGSEVYRMLREPAEPVAAEPKQSGSFRYLQGMLEAGEGGDWPGPGGPRNLKPTASKLGAPLSGLQGLPECTRCGH
